Laboratory results as given in PubChem BioAssay AID504834 (National Center for Advancing Translational Sciences (NCATS), 2011).
Where “and” joins values, the source holds several entries; their conditions need not be identical. Equal entries are not always repeated. The campaign covered roughly 320,000 compounds. About 22,000 (6.9%) were called active. The inconclusive results got no clear call from the source; some entries with a clear call stand among them for comparison. Calls come from the whole dose curve; as a rule, active = well fitted inhibition curve with a large enough effect; inconclusive = small, poorly fitted or top-dose-only effect, or another doubt; inactive = no such curve, though single readings can be large or run the other way. Where the call is inconclusive, the potency comes from a doubtful curve fit.

experiment: Primary qHTS for delayed death inhibitors of the malarial parasite plastid, 96 hour incubation; settings: P. falciparum luciferase reporter growth; series mostly up to 28.7 µM; activity change, negative = inhibition: at the top concentration
How it was run: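 Two parasite generations (96 h, 37 C, 5% CO2) of compound exposure in infected erythrocytes (0.05% parasitemia, 2% hematocrit). Luciferase-reporter P. falciparum; decreased luminescence indicates inhibited growth, aimed at apicoplast-acting delayed death.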
% is set by controls: 0 for no effect and ±100 for the full control effect; potency is the fitted concentration of half-maximal effect.

| SMILES | Potency | activity change, negative = inhibition |
| --- | --- | --- |
| Nc1ccc(-c2nnn(Cc3ccccc3F)n2)cc1 | inconclusive: 10.4 µM [inhibitor, single point] | – |
| Cn1c(CNc2ccc(Cl)cc2)nc2ccccc21 | inconclusive: 18.5 µM [inhibitor, single point] | – |
| CCn1c(=O)n(CC)c2cc(N3CCCC3)c(NC(=O)c3ccccc3Br)cc21 | inconclusive: 14.7 µM [inhibitor, single point] | – |
| COc1ccc(S(=O)(=O)N(C)C)cc1NC(=O)CN1CCN(C(=O)C2CC2)CC1 | – | inactive: -15.8% |
| Cc1ccc(C(C)C)c(OCC(=O)Nc2ccc3c(c2)nc(CCN2CCCCC2)n3C)c1 | – | inactive: -18.5% |
| COc1ccc(N(CCCN2C(=O)c3cccc4cccc(c34)C2=O)C(=O)c2cccs2)cc1 | inconclusive: 18.5 µM [inhibitor, single point] | – |
| CN(C(=S)NC(=O)c1ccccc1)C1CCCCC1 | inconclusive: 13.1 µM [inhibitor, partial curve, poor fit] | – |
| CCOC(=O)c1c(S(=O)(=O)NCCc2cccs2)c(C)n(C)c1C | inconclusive: 1.04 µM [inhibitor, partial curve, poor fit] | – |
| C/C(=N\NC(=O)c1cc(-c2ccccc2C)nc2ccccc12)c1cccnc1 | inconclusive: 13.1 µM [inhibitor, single point] | – |
| CCC(C)Nc1cc(C)c(C#N)c2nc3ccccc3n12 (configuration not stated) | – | inactive: -0.809% |
| O=C(O)c1cccc(NC(=O)c2cn(-c3ccccc3)nc2-c2cc3ccccc3o2)c1 | – | inactive: 11.1% |
| CC(=O)Nc1ccc(-c2ccc3nnc(C)n3n2)cc1 | inconclusive: 18.5 µM [inhibitor, single point] | – |
| CCN1CCN(C(=O)c2cc3cc([N+](=O)[O-])ccc3oc2=O)CC1 | inconclusive: 7.38 µM [inhibitor, partial curve] | – |
| O=C(NCCc1ccccc1)C(=O)NCCC1CCCCN1S(=O)(=O)c1cccs1 (configuration not stated) | inconclusive: 18.5 µM [inhibitor, single point] | – |
| COc1ccccc1C(O)(C(=O)NN(C)c1ccccc1)c1ccccc1OC | – | inactive: 9.07% |
| Cc1ccc(/C=N/NC(=O)c2cccc([N+](=O)[O-])c2)o1 | inconclusive: 18.5 µM [inhibitor, single point] | – |
| COc1ccc(NC(=O)/C=C/c2ccco2)cn1 | – | inactive: 181% |
| Cc1ccc(-c2csc(N3CCN(S(=O)(=O)c4ccc5c(c4)NC(=O)CO5)CC3)n2)cc1 | inconclusive: 2.33 µM [inhibitor, partial curve, poor fit] | – |
| CCOc1ccccc1NC(=O)CCCN1C(=S)NC(C)(C)CC1C (configuration not stated) | – | inactive: 346% |
| Cc1cnccc1CN(C)Cc1nc(Cc2ccccc2Cl)no1 | – | inactive: -25.2% |
| C=C(C)CN(CC)C(=O)CN1C(=O)NC2(CCCc3ccccc32)C1=O (configuration not stated) | – | inactive: 17.4% |
| Cc1ccc(NC(=O)CCc2nnc3ccc(N4CCOCC4)nn23)cc1C | – | inactive: 37.8% |
| Cc1cc(NS(C)(=O)=O)c(=O)n(Cc2c(F)cccc2Cl)c1 | inconclusive: 10.4 µM [inhibitor, single point] | – |
| COc1ccc(C(=O)Nc2cccnc2)cc1OC | – | inactive: -0.659% |

Arranged by SMILES length (high to low): 3 of the compounds above

| SMILES | Potency | activity change, negative = inhibition |
| --- | --- | --- |
| Cc1ccc(C(C)C)c(OCC(=O)Nc2ccc3c(c2)nc(CCN2CCCCC2)n3C)c1 | – | inactive: -18.5% |
| CCC(C)Nc1cc(C)c(C#N)c2nc3ccccc3n12 (configuration not stated) | – | inactive: -0.809% |
| CN(C(=S)NC(=O)c1ccccc1)C1CCCCC1 | inconclusive: 13.1 µM [inhibitor, partial curve, poor fit] | – |

Further entries follow:

| SMILES | Potency | activity change, negative = inhibition |
| --- | --- | --- |
| CC(=O)c1cc(C#N)c(N2CCCC2)nc1C | – | inactive: 41.8% [at 5.75 µM] |
| O=C(CCCN1C(=O)/C(=C/c2ccccc2)SC1=S)Nc1ccc(O)cc1 | – | inactive: -3.08% [at 5.75 µM] |
| CN=C(NC(=O)Nc1c(C)cccc1C)NC(=O)Nc1c(C)cccc1C | inconclusive: 13.1 µM [inhibitor, partial curve, poor fit] | – |
| CCOc1cc(CNCc2ccccn2)ccc1OCC(=O)NC1CCCCC1 | inconclusive: 9.28 µM [inhibitor, single point] | – |
| CCN1CCN(c2ccc(N=Cc3ccc(O)cc3O)cc2)CC1 | inconclusive: 4.15 µM [inhibitor, single point] | – |
| COc1cc(N/C=C(\C(C)=O)c2ccccc2)cc(OC)c1 | inconclusive: 18.5 µM [inhibitor, single point] | – |
| COc1ccc(Cl)cc1CN1CCN(c2nc(C)cc(C)c2C#N)CC1 | inconclusive: 18.5 µM [inhibitor, single point] | – |
| Cc1cc(C(=O)O)n(C(C)(C)C)n1 | inconclusive: 0.0208 µM [inhibitor, full curve, poor fit] | – |
| COc1ccc2[nH]c(=O)c(CN(C(=O)NC3CCCCC3)C3CCCC3)cc2c1 | inconclusive: 2.62 µM [inhibitor, single point] | – |
| N#C/C(=C\c1ccccc1Br)C(=O)NC1CC1 | active: 1.47 µM | – |
| CCOc1ccccc1N1CCN(CC(=O)N(C2CCCC2)C2CCS(=O)(=O)C2)CC1 (configuration not stated) | – | inactive: -24.3% |
| O=c1c(-c2ccc(O)cc2)coc2cc(O)cc(O)c12 | inactive | – |
| Cc1ccc(S(=O)(=O)N2CCC(C(=O)Nc3cc(C(F)(F)F)ccc3N3CCOCC3)CC2)cc1C | active: 9.28 µM | – |
| Cc1ccc(S(=O)(=O)NC(=O)c2cccc(Br)c2)cc1 | inconclusive: 10.4 µM [inhibitor, partial curve, poor fit] | – |
| CC(C)CC(=O)Nc1ccc(-c2nc3ccccc3c(=O)[nH]2)cc1 | – | inactive: 352% |
| O=C(/C(C=Nc1cc2c(oc1=O)CCCC2=O)=C(\O)c1ccccc1)c1ccccc1 | – | inactive: 55.7% |
| O=C(O)CCC(=O)NN1C(=O)c2ccccc2NC1c1ccco1 (configuration not stated) | – | inactive: 14% |
| CCOC(=O)Nc1ccc2c(c1)N(C(=O)CCN1CCOCC1)c1ccccc1S2 | inactive and inconclusive: 18.5 µM [inhibitor, single point] | – |
| COc1cc(NC(=O)c2ccc(C)cc2)c(OC)cc1NC(=O)CN1CCCCC1 | inconclusive: 18.5 µM [inhibitor, single point] | – |
| CC1CN(C(=S)Nc2ccc(Br)cc2)CC(C)O1 (configuration not stated) | inconclusive: 3.29 µM [inhibitor, partial curve, poor fit] | – |
| COc1ccc(N=C2NC(=O)/C(=C\c3ccco3)S2)cc1 | – | inactive: -16.7% |
| COc1ccc(OC)c(CCNC(=O)Cn2nc(C)c3c(C)n(-c4ccccc4)nc3c2=O)c1 | inconclusive: 18.5 µM [inhibitor, single point] | – |
| CC12CC3CC(C)(C1)CC(C(=O)N1CCCC1)(C3)C2 | active: 11.7 µM | – |
